In paper PMC4519330:
These are yes or no findings as the source states them, for the method shown. Binding seen in cells or lysates may run through a third protein. Some entries that bind do so weakly or less than the wild type. For some assays here: Tags and fused reporters may be left off the sequences shown.

By UniProt entry, the sequences of proteins in these tests, tags left out. Residues count along the entry.
UniProt O00463: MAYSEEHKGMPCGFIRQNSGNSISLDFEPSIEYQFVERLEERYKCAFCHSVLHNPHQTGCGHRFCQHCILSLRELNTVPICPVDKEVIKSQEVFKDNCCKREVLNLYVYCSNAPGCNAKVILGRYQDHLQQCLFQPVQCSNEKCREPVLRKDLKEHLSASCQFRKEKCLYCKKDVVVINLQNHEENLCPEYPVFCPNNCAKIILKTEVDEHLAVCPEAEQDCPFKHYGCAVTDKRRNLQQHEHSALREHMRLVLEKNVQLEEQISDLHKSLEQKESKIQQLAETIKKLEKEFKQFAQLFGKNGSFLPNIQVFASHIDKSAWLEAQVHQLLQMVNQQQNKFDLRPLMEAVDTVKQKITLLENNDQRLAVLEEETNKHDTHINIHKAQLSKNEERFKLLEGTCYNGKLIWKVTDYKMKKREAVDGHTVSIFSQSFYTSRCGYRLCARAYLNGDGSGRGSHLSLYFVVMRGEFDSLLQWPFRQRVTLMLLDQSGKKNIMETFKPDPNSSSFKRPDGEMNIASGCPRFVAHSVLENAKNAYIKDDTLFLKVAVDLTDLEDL
UniProt Q7Z434, residues 142-540: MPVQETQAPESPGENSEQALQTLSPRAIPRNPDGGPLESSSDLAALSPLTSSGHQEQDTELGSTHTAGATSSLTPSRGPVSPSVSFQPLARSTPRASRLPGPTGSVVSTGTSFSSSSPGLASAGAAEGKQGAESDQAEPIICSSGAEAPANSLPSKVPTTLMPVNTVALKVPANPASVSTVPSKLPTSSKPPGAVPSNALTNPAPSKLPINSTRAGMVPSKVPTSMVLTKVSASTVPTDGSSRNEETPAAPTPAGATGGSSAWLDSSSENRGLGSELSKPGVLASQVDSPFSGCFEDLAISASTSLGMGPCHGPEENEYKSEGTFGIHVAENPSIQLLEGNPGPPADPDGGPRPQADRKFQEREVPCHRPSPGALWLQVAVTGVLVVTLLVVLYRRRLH

How the values were obtained:
Flag-TRAF2 = target: T1, Flag-TRAF2 (UniProt Q12933); experiment: co-IP; 293T cells co-transfected; lysates in NP40 buffer (50 mM Tris-HCl pH 7.4, 150 mM NaCl, 5 mM EDTA, 1% NP40) precipitated with anti-Flag agarose at 4°C for 4-6 hours; immunoblot
T1 sequence: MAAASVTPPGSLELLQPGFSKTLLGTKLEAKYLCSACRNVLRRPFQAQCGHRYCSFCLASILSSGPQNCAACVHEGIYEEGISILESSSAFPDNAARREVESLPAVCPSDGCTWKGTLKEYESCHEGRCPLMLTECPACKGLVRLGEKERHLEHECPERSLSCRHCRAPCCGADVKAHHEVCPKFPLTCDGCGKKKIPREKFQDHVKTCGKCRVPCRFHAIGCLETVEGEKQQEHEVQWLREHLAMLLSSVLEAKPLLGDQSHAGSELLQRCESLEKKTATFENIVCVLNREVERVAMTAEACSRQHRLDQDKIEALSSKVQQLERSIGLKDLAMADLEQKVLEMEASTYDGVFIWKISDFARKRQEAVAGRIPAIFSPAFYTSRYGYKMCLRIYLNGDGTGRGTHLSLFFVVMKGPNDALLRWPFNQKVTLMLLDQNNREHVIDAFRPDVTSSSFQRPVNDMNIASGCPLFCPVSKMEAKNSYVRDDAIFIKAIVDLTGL

Flag-tagged TRAF5 = Flag-tagged TRAF5 (UniProt O00463); experiment: as above

binding (Flag-TRAF2): binds
binding (Flag-tagged TRAF5): binds
Substance: V5-tagged MAVS50 (from UniProt Q7Z434 142-540)
